Drawing on paper PMC5249250, this text covers binding for 4 molecules.

Test [1] concerns the target POB1 expressed in planta (HA-POB1 and GFP-POB1) (Arabidopsis thaliana) (UniProt Q9FPW6). The test can be described thus: co-IP; tagged proteins co-expressed by agroinfiltration in leaves; extract after 3 days incubated with epitope antibody agarose conjugates (anti-GFP or anti-HA) 3-4 hours at 4°C; blots with anti-HA and anti-GFP; MG132 treatment for POB1 with HA-PUB17 (Fig 7E).

The target in test [2] is T1, GFP-AtCUL3A (Arabidopsis thaliana) (UniProt Q9ZVH4).
T1 sequence: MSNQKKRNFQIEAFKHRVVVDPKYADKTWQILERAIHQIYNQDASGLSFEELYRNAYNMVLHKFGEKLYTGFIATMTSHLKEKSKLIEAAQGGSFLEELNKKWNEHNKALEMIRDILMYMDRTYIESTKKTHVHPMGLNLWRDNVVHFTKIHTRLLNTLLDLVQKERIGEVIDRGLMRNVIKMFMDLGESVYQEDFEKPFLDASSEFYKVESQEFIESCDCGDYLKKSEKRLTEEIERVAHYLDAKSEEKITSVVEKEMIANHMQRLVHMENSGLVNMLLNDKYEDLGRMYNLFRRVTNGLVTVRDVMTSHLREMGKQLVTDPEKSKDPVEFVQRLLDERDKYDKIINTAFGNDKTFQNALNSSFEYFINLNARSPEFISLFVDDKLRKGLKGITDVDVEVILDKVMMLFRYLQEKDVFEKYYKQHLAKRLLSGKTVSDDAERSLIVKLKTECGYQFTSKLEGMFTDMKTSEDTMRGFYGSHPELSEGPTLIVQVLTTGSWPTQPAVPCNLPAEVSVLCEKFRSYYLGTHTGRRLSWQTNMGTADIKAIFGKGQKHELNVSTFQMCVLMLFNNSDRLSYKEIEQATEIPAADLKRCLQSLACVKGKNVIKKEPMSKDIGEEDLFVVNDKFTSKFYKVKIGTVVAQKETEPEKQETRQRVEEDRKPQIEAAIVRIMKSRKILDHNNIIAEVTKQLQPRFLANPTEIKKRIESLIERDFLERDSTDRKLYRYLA
Described as above.

Test [3] deals with T2, POB1 (yeast two-hybrid fusions) (Arabidopsis thaliana) (UniProt Q9FPW6).
T2 sequence: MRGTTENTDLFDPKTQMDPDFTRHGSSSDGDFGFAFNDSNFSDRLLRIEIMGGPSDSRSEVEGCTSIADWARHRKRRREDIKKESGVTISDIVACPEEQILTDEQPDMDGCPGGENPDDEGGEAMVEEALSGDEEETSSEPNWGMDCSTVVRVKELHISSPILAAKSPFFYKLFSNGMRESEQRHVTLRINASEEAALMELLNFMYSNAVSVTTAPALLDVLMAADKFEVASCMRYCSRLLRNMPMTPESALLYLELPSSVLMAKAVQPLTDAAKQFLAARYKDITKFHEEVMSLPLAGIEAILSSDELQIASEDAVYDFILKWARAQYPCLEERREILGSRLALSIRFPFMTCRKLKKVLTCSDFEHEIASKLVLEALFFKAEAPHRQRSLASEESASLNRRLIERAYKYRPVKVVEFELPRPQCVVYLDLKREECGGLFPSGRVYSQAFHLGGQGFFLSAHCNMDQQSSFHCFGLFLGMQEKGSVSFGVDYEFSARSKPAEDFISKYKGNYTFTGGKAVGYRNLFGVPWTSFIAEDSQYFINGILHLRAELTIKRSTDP
The test can be described thus: two-hybrid; AD- and BD- fusions co-transformed into AH109 yeast cells; growth on selective media (Leu-, Trp-, His- and X-alpha-Gal), 30°C, 3 to 5 days.

These are yes or no findings as the source states them, for the method shown. For some assays here: In cells and extracts the contact can be indirect. Some entries that bind do so weakly or less than the wild type. Tags and fused reporters may be left off the sequences shown.

B1: POB1 expressed in planta (HA-POB1 and GFP-POB1) (protein, UniProt Q9FPW6 1-561)
chain: MRGTTENTDLFDPKTQMDPDFTRHGSSSDGDFGFAFNDSNFSDRLLRIEIMGGPSDSRSEVEGCTSIADWARHRKRRREDIKKESGVTISDIVACPEEQILTDEQPDMDGCPGGENPDDEGGEAMVEEALSGDEEETSSEPNWGMDCSTVVRVKELHISSPILAAKSPFFYKLFSNGMRESEQRHVTLRINASEEAALMELLNFMYSNAVSVTTAPALLDVLMAADKFEVASCMRYCSRLLRNMPMTPESALLYLELPSSVLMAKAVQPLTDAAKQFLAARYKDITKFHEEVMSLPLAGIEAILSSDELQIASEDAVYDFILKWARAQYPCLEERREILGSRLALSIRFPFMTCRKLKKVLTCSDFEHEIASKLVLEALFFKAEAPHRQRSLASEESASLNRRLIERAYKYRPVKVVEFELPRPQCVVYLDLKREECGGLFPSGRVYSQAFHLGGQGFFLSAHCNMDQQSSFHCFGLFLGMQEKGSVSFGVDYEFSARSKPAEDFISKYKGNYTFTGGKAVGYRNLFGVPWTSFIAEDSQYFINGILHLRAELTIKRSTDP
With B1, the binding result in test [1] and in test [2] was “binds” each time.

B2: POB1^D146A expressed in planta (HA-POB1^D146A and GFP-POB1^D146A) (protein, UniProt Q9FPW6 1-561)
chain: MRGTTENTDLFDPKTQMDPDFTRHGSSSDGDFGFAFNDSNFSDRLLRIEIMGGPSDSRSEVEGCTSIADWARHRKRRREDIKKESGVTISDIVACPEEQILTDEQPDMDGCPGGENPDDEGGEAMVEEALSGDEEETSSEPNWGMACSTVVRVKELHISSPILAAKSPFFYKLFSNGMRESEQRHVTLRINASEEAALMELLNFMYSNAVSVTTAPALLDVLMAADKFEVASCMRYCSRLLRNMPMTPESALLYLELPSSVLMAKAVQPLTDAAKQFLAARYKDITKFHEEVMSLPLAGIEAILSSDELQIASEDAVYDFILKWARAQYPCLEERREILGSRLALSIRFPFMTCRKLKKVLTCSDFEHEIASKLVLEALFFKAEAPHRQRSLASEESASLNRRLIERAYKYRPVKVVEFELPRPQCVVYLDLKREECGGLFPSGRVYSQAFHLGGQGFFLSAHCNMDQQSSFHCFGLFLGMQEKGSVSFGVDYEFSARSKPAEDFISKYKGNYTFTGGKAVGYRNLFGVPWTSFIAEDSQYFINGILHLRAELTIKRSTDP
As for B2, in test [2], the binding result is “binds”.

B3: POB1 (yeast two-hybrid fusions) (protein, UniProt Q9FPW6 1-561)
chain: MRGTTENTDLFDPKTQMDPDFTRHGSSSDGDFGFAFNDSNFSDRLLRIEIMGGPSDSRSEVEGCTSIADWARHRKRRREDIKKESGVTISDIVACPEEQILTDEQPDMDGCPGGENPDDEGGEAMVEEALSGDEEETSSEPNWGMDCSTVVRVKELHISSPILAAKSPFFYKLFSNGMRESEQRHVTLRINASEEAALMELLNFMYSNAVSVTTAPALLDVLMAADKFEVASCMRYCSRLLRNMPMTPESALLYLELPSSVLMAKAVQPLTDAAKQFLAARYKDITKFHEEVMSLPLAGIEAILSSDELQIASEDAVYDFILKWARAQYPCLEERREILGSRLALSIRFPFMTCRKLKKVLTCSDFEHEIASKLVLEALFFKAEAPHRQRSLASEESASLNRRLIERAYKYRPVKVVEFELPRPQCVVYLDLKREECGGLFPSGRVYSQAFHLGGQGFFLSAHCNMDQQSSFHCFGLFLGMQEKGSVSFGVDYEFSARSKPAEDFISKYKGNYTFTGGKAVGYRNLFGVPWTSFIAEDSQYFINGILHLRAELTIKRSTDP
Regarding B3, the binding entry in test [3] is “binds”.

B4: AD-AtCUL3A (protein, UniProt Q9ZVH4 1-732)
chain: MSNQKKRNFQIEAFKHRVVVDPKYADKTWQILERAIHQIYNQDASGLSFEELYRNAYNMVLHKFGEKLYTGFIATMTSHLKEKSKLIEAAQGGSFLEELNKKWNEHNKALEMIRDILMYMDRTYIESTKKTHVHPMGLNLWRDNVVHFTKIHTRLLNTLLDLVQKERIGEVIDRGLMRNVIKMFMDLGESVYQEDFEKPFLDASSEFYKVESQEFIESCDCGDYLKKSEKRLTEEIERVAHYLDAKSEEKITSVVEKEMIANHMQRLVHMENSGLVNMLLNDKYEDLGRMYNLFRRVTNGLVTVRDVMTSHLREMGKQLVTDPEKSKDPVEFVQRLLDERDKYDKIINTAFGNDKTFQNALNSSFEYFINLNARSPEFISLFVDDKLRKGLKGITDVDVEVILDKVMMLFRYLQEKDVFEKYYKQHLAKRLLSGKTVSDDAERSLIVKLKTECGYQFTSKLEGMFTDMKTSEDTMRGFYGSHPELSEGPTLIVQVLTTGSWPTQPAVPCNLPAEVSVLCEKFRSYYLGTHTGRRLSWQTNMGTADIKAIFGKGQKHELNVSTFQMCVLMLFNNSDRLSYKEIEQATEIPAADLKRCLQSLACVKGKNVIKKEPMSKDIGEEDLFVVNDKFTSKFYKVKIGTVVAQKETEPEKQETRQRVEEDRKPQIEAAIVRIMKSRKILDHNNIIAEVTKQLQPRFLANPTEIKKRIESLIERDFLERDSTDRKLYRYLA
Turning to B4, in test [3], the binding result is recorded as “binds”.
